# Patent US20110243926A1 (published 2011)
# These are yes or no findings as the source states them, for the method shown. Some results given as binding are weak or reduced against the parent protein; the word gives no strength.
# B1: humanized G1 antibody design labeled "aggressive" (G1aggr) (antibody, V domains shown)
# VH: QVQLVQSGAEVKKPGASVKVSCKVSGYTFTSYDINWVRQAPGKGLEWMGWIYPGDGSIKYNEKFKGRVTMTVDKSTDTAYMELSSLRSEDTAVYYCARRGEYGNYEGAMDYWGQGTLVTVSS
# VL: DIQMTQSPSSLSASVGDRVTITCKASQSVDYDGHSYMNWYQQKPGKAPKLLIYAASNLESGVPSRFSGSGSGTDFTLTISSLQPEDFATYYCQQSDENPLTFGGGTKVEIK
# notes: also called humanized G1aggr; humanized antibody G1aggr
# Target: T1, soluble P-selectin (UniProt P16109 42-771, limits assumed)
# T1 sequence (looked up): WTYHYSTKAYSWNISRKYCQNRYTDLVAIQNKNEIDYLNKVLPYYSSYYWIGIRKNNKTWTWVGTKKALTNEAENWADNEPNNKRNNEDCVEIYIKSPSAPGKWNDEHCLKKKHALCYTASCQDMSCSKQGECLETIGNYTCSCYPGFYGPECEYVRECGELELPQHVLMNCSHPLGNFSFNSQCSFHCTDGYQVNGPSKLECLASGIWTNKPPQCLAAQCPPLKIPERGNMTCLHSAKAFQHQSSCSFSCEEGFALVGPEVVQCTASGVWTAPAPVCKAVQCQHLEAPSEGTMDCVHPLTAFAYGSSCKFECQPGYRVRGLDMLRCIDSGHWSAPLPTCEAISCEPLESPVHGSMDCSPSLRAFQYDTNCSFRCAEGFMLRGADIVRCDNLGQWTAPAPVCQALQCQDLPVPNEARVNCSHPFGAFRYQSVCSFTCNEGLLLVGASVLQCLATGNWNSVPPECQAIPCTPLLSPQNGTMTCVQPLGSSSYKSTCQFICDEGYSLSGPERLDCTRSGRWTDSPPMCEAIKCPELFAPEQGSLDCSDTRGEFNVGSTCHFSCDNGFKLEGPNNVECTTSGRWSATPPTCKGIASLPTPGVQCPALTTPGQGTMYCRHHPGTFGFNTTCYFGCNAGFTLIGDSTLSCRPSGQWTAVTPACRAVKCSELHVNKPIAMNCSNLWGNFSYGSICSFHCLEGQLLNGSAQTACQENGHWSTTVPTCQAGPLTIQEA
# Test: SPR (Biacore 3000), soluble P-selectin against soluble E-selectin surfaces
binder,measurement,value
B1,binding,binds
